# Measurements published in the supplement of paper PMC9135407.
# Several values for one entry are separate records, joined by “and”; a condition that tells them apart may be missing. Equal entries are not always repeated. Structures can show the parent of a compound that is named as a salt. ± gives the standard deviation of the averaged measurements. This is one part of the list. Part of the spread comes from offsets between plates or batches.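 Assay uses culture-activated primary human stellate myofibroblasts; lipid droplet recovery indicates inactivation. Measured: proportion of Hoechst-counted cells over a plate-specific Bodipy cutoff, duplicate wells, DMSO and nortriptyline as per-plate negative and positive controls. A hit scores, control-normalized, above the plate's top-tenth-percentile nortriptyline wells or ranks among its three best wells. Final well concentrations not reported.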
# Tested on: primary human hepatic stellate cells (donor 1)
# Assay: percent Bodipy-positive cells; higher = more lipid droplet accumulation
# Conditions: 48 h
# [1] = library stock concentration: 10 mM
# [2] = library stock concentration: 400 uM
# [3] = library stock concentration: 2 mM
# [4] = library stock concentration: 3.33 mM
# [5] = library stock concentration: 1 mM
# [6] = library stock concentration: 5.4 mM
# [7] = library stock concentration: 6.7 mM
smiles,measurement,setting,value
CN(C)CCOc1ccc(/C(=C(/CCCl)c2ccccc2)c2ccccc2)cc1.O=C(O)CC(O)(CC(=O)O)C(=O)O,percent Bodipy-positive cells,[1],93.2 ± 1.1%
COc1cc(OC)c(/C=C/S(=O)(=O)Cc2ccc(OC)c(NCC(=O)O)c2)c(OC)c1,percent Bodipy-positive cells,library stock concentration: 80 uM,12.8 ± 5.8%
same,percent Bodipy-positive cells,[2],19.7 ± 13%
same,percent Bodipy-positive cells,[3],25.1 ± 3.8%
same,percent Bodipy-positive cells,[4],41.2 ± 10%
same,percent Bodipy-positive cells,[1],45% and 24%
CN(C)[C@@H]1C(O)=C(C(N)=O)C(=O)[C@@]2(O)C(O)=C3C(=O)c4c(O)cccc4[C@@](C)(O)[C@H]3[C@H](O)[C@@H]12 [Oxytetracycline dihydrate],percent Bodipy-positive cells,,20 ± 2.4%
CN(C)[C@@H]1C(O)=C(C(N)=O)C(=O)[C@@]2(O)C(O)=C3C(=O)c4c(O)cccc4[C@@](C)(O)[C@H]3[C@H](O)[C@@H]12 [Oxytetracycline hydrochloride],percent Bodipy-positive cells,[1],28.5 ± 2.3%
CN(C)[C@@H]1C(O)=C(C(N)=O)C(=O)[C@@]2(O)C(O)=C3C(=O)c4c(O)cccc4[C@@](C)(O)[C@H]3[C@H](O)[C@@H]12 [Oxytetracycline],percent Bodipy-positive cells,library stock concentration: 4 mM,5.32 ± 1.1%
same,percent Bodipy-positive cells,[1],11.9 ± 4.2%
OC(CN1CCN(c2cccc(Cl)c2)CC1)C(c1ccccc1)c1ccccc1 (stereo not given),percent Bodipy-positive cells,[4],16.5 ± 6.5%
same,percent Bodipy-positive cells,[1],20.5% and 18.9%
COc1ccc(-c2ccc3c(N4CCOCC4)nc(N4C[C@@H](C)O[C@@H](C)C4)nc3n2)cc1CO,percent Bodipy-positive cells,[2],12.1 ± 7.2%
same,percent Bodipy-positive cells,[3],14.5 ± 3%
same,percent Bodipy-positive cells,[4],7.8 ± 0.45%
same,percent Bodipy-positive cells,[1],12.4% and 9.91%
Nc1ccc(CCNc2ncnc3c2ncn3C2OC(CO)C(O)C2O)cc1 (stereo not given) [N6-2-(4-Aminophenyl)ethyladenosine],percent Bodipy-positive cells,[1],31.6 ± 4.1%
Cn1cnc2cc3c(Nc4cccc(Br)c4)ncnc3cc21,percent Bodipy-positive cells,[4],5.95 ± 0.51%
C#C[C@]1(O)CC[C@H]2[C@@H]3CCC4=Cc5oncc5CC4(C)[C@H]3CCC21C (stereo not given in full) [Danazol],percent Bodipy-positive cells,[1],86 ± 3.1%
CCCCC[C@H](O)/C=C/[C@H]1C=CC(=O)[C@@H]1CCCCCCC(=O)OCC [Prostaglandin A1 ethyl ester],percent Bodipy-positive cells,[5],18.4 ± 5.3%
NS(=O)(=O)c1ccc(N=Nc2c(O)[nH]c3ccc(Br)cc23)cc1 [Cdk2 Inhibitor II],percent Bodipy-positive cells,[4],8.4 ± 3%
NC(N)=Nc1nc(CSCC/C(N)=N/S(N)(=O)=O)cs1 [Famotidine],percent Bodipy-positive cells,,28.8 ± 3%
same,percent Bodipy-positive cells,[4],9.83 ± 1.8%
same,percent Bodipy-positive cells,library stock concentration: 5.9 mM,10.6% and 14.5%
NC(N)=Nc1nc(CSCC/C(N)=N/S(N)(=O)=O)cs1,percent Bodipy-positive cells,[1],6.95 ± 2.3%
Cc1cc(-c2ccccc2)nnc1NCCN1CCOCC1 [Minaprine dihydrochloride],percent Bodipy-positive cells,,18.5 ± 2.7%
Cc1cc(-c2ccccc2)nnc1NCCN1CCOCC1 [Minaprine hydrochloride],percent Bodipy-positive cells,[6],21.8 ± 6.2%
same,percent Bodipy-positive cells,[1],40.2 ± 5.1%
CC/C(=C(/CC)c1ccc(O)cc1)c1ccc(O)cc1 [Diethylstilbestrol],percent Bodipy-positive cells,,15.8 ± 9.4%
same,percent Bodipy-positive cells,[5],9.63 ± 1.6%
same,percent Bodipy-positive cells,[4],8.1 ± 4.7%
same,percent Bodipy-positive cells,library stock concentration: 7.5 mM,8.85% and 4.65%
same,percent Bodipy-positive cells,[1],13.9% and 10.1%
CC1=C(/C=C/C(C)=C/C=C/C(C)=C\C(=O)O)C(C)(C)CCC1 [13-cis retinoic acid],percent Bodipy-positive cells,[5],6.22 ± 5%
CC1=C(/C=C/C(C)=C/C=C/C(C)=C\C(=O)O)C(C)(C)CCC1 [Isotretinon],percent Bodipy-positive cells,[7],22.89 ± 0.03%
same,percent Bodipy-positive cells,[1],25.3 ± 1.3%
CC1=C(/C=C/C(C)=C/C=C/C(C)=C\C(=O)O)C(C)(C)CCC1 [Isotretinoin],percent Bodipy-positive cells,,24.4 ± 8.9%
same,percent Bodipy-positive cells,[4],14.3 ± 8.3%
CC1=C(/C=C/C(C)=C/C=C/C(C)=C\C(=O)O)C(C)(C)CCC1 [13-cis-retinoic acid],percent Bodipy-positive cells,[1],13.8 ± 1.9%
Nc1nc(OCc2ccccc2)c2nc[nH]c2n1 [O6-benzylguanine],percent Bodipy-positive cells,[1],57 ± 5.9%
Cl.N=C(N)NCCC[C@H](N)C(=O)O,percent Bodipy-positive cells,[1],50.8 ± 1.1%
NC1C=CC=C(C(=O)O)C1 (stereo not given) [Gabaculine hydrochloride],percent Bodipy-positive cells,[1],32.8 ± 10%
CC(C)(Sc1ccc(CCN(CCCCC2CCCCC2)C(=O)NC2CCCCC2)cc1)C(=O)O,percent Bodipy-positive cells,[5],12.1 ± 1.1%
CSc1ccc2c(c1)N(CCC1CCCCN1C)c1ccccc1S2 (stereo not given) [Thioridazine HCl],percent Bodipy-positive cells,[6],97.8 ± 3.1%
CSc1ccc2c(c1)N(CCC1CCCCN1C)c1ccccc1S2 (stereo not given) [Thioridazine hydrochloride],percent Bodipy-positive cells,,72.7 ± 6.5%
same,percent Bodipy-positive cells,library stock concentration: 4.9 mM,78 ± 4.5%
CC#CCC(C)[C@@H](O)/C=C/[C@@H]1[C@H]2C/C(=C/CCCC(=O)O)C[C@H]2C[C@H]1O (stereo partly drawn) [15(R)-Iloprost],percent Bodipy-positive cells,[5],13.7 ± 8.7%
O=C(/C=C/c1ccc(O)c(O)c1)O[C@@H]1C[C@](O)(C(=O)O)C[C@@H](O)[C@H]1O [Chlorogenic Acid],percent Bodipy-positive cells,[5],7.3 ± 1.4%
same,percent Bodipy-positive cells,[4],11.3 ± 8.2%
same,percent Bodipy-positive cells,[1],16.2 ± 0.62%
O=C(/C=C/c1ccc(O)c(O)c1)O[C@@H]1C[C@](O)(C(=O)O)C[C@@H](O)[C@H]1O [Chlorogenic acid],percent Bodipy-positive cells,,31 ± 2.2%
same,percent Bodipy-positive cells,[1],33.2 ± 15%
C[C@@H]1COC(Nc2ccc3ncnc(Nc4ccc(OCc5nccs5)c(Cl)c4)c3c2)=N1 [Varlitinib],percent Bodipy-positive cells,[4],38.2 ± 1.1%
same,percent Bodipy-positive cells,[1],69.5 ± 5.5%
CC(C)CCC[C@@H](C)[C@H]1CC[C@H]2[C@@H]3CC(=O)[C@@]4(O)C[C@@H](O)CC[C@]4(C)[C@H]3CC[C@]12C [5.alpha.-hydroxy-6-keto Cholesterol],percent Bodipy-positive cells,[5],11.1 ± 3.4%
C=CCOC(Cn1ccnc1)c1ccc(Cl)cc1Cl (stereo not given) [Enilconazole],percent Bodipy-positive cells,,9.82 ± 0.49%
same,percent Bodipy-positive cells,[7],34.4 ± 22%
N#C/C(=C\c1ccc(O)c(O)c1)C(=O)NCc1ccccc1,percent Bodipy-positive cells,[4],10.5 ± 5.9%
same,percent Bodipy-positive cells,[1],6.99 ± 0.29%
same,percent Bodipy-positive cells,library stock concentration: 17 mM,11.8 ± 4.2%

# Given with tabs: entries from further up
smiles	measurement	setting	value
CN(C)CCOc1ccc(/C(=C(/CCCl)c2ccccc2)c2ccccc2)cc1.O=C(O)CC(O)(CC(=O)O)C(=O)O	percent Bodipy-positive cells	[1]	93.2 ± 1.1%
COc1cc(OC)c(/C=C/S(=O)(=O)Cc2ccc(OC)c(NCC(=O)O)c2)c(OC)c1	percent Bodipy-positive cells	library stock concentration: 80 uM	12.8 ± 5.8%
same	percent Bodipy-positive cells	[2]	19.7 ± 13%
same	percent Bodipy-positive cells	[3]	25.1 ± 3.8%
